# Results from the supplement of paper PMC8326762, “A Small Molecule Inhibitor of Pex3–Pex19 Interaction Disrupts Glycosome Biogenesis and Causes Lethality in Trypanosoma brucei” (Frontiers in Cell and Developmental Biology, 2021).
# Where a name gives a salt, the structure may show the parent alone. Some of the results follow. The data scatter; read single values as rough.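 Yeast growth was read as optical density at 600 nm. The two-hybrid strains grew without histidine, so growth needed the Pex3–Pex19 binding; a compound counted as trypanosome-selective if it cut growth of the trypanosome-pair strain by more than 65% and the human-pair strain by less than 65%.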
# Key:
# [1] = tested on: Saccharomyces cerevisiae HF7c pdr5Δ; assay: general growth inhibition of yeast HF7c pdr5Δ in -Leu -Trp medium, relative to DMSO; higher = stronger general growth inhibition; conditions: 100 µM; 24 h
# [2] = tested on: human PEX3-PEX19 interaction (yeast two-hybrid); assay: growth inhibition of yeast two-hybrid strain reporting HsPex3-HsPex19 interaction, relative to DMSO; higher = stronger inhibition of human Pex3-Pex19 interaction / growth; conditions: 100 µM; 24 h; 3-aminotriazole 10 mM
# [3] = tested on: T. brucei Pex3-Pex19 interaction (yeast two-hybrid); assay: growth inhibition of yeast two-hybrid strain reporting TbPex3-TbPex19 interaction, relative to DMSO; higher = stronger inhibition of T. brucei Pex3-Pex19 interaction / growth; conditions: 100 µM; 24 h
Structure (SMILES),general growth inhibition [1] [%],growth inhibition [2] [%],growth inhibition [3] [%]
Cc1[nH]c2ccc(O)cc2c1CCN [2-Methyl-5-hydroxytryptamine maleate],48,44,61.6
"CN1CCc2cc(O)cc3c2[C@H]1Cc1ccc(O)c(O)c1-3 [R(-)-2,10,11-Trihydroxyaporphine hybrobromide]",30.5,41.1,60.7
CC(=O)NBr [N-Bromoacetamide],36.4,38.8,50.7
Cc1o[nH]c(=O)c1CC(N)C(=O)O (racemic) [(±)-AMPA hydrobromide],27.5,35.1,60.7
